# Laboratory results as given in patent US20180086804A1 (COMMISSARIAT A L ENERGIE ATOMIQUE ET AUX ENERGIES …, published 2018).
# Results are given in words; binding and its absence hold for the method and conditions named.
# Legend:
# Assay in all cases: competition ELISA
# [1] = target: T1, HLA-DR1 (HLA-DRB1*01:01) (human)
# T1 construct: mature; class II HLA molecule purified from homozygous EBV-transformed lymphoblastoid cells with antibody L243
# [2] = target: T2, HLA-DR4 (HLA-DRB1*04:01) (human)
# T2 construct: mature; purified from homozygous EBV-transformed lymphoblastoid cells with antibody L243
# [3] = target: T3, HLA-DR7 (HLA-DRB1*07:01) (human)
# T3 construct: mature; purified from homozygous EBV-transformed lymphoblastoid cells with antibody L243
# [4] = target: T4, HLA-DR11 (HLA-DRB1*11:01) (human)
# T4 construct: mature; purified from homozygous EBV-transformed lymphoblastoid cells with antibody L243
# [5] = target: T5, HLA-DR13 (HLA-DRB1*13:01) (human)
# T5 construct: mature; purified from homozygous EBV-transformed lymphoblastoid cells with antibody L243
# [6] = target: T6, HLA-DR15 (HLA-DRB1*15:01) (human)
# T6 construct: mature; purified from homozygous EBV-transformed lymphoblastoid cells with antibody L243
# [7] = target: T7, HLA-DRB3 (HLA-DRB3*01:01) (human)
# T7 construct: mature; purified from homozygous EBV-transformed lymphoblastoid cells with antibody L243
# [8] = target: T8, HLA-DRB4 (HLA-DRB4*01:01) (human)
# T8 construct: mature; purified from homozygous EBV-transformed lymphoblastoid cells with antibody L243
# [9] = target: T9, HLA-DRB5 (HLA-DRB5*01:01) (human)
# T9 construct: mature; purified from homozygous EBV-transformed lymphoblastoid cells with antibody L243
# [10] = target: T10, HLA-DR3 (HLA-DRB1*03:01) (human)
# T10 construct: mature; purified from homozygous EBV-transformed lymphoblastoid cells with antibody L243
Binder,binding [2],binding [3],binding [4],binding [5],binding [6],binding [7],binding [8],binding [9],binding [10],binding [1]
PGLRPRTALGDIGNK (C-terminal amide) [CCNB1 37-51],no binding (tested: rel. affinity >1771),no binding (tested: rel. affinity >1036),no binding (tested: rel. affinity >1949),–,no binding (tested: rel. affinity >329),no binding (tested: rel. affinity >362),no binding (tested: rel. affinity >961),no binding (tested: rel. affinity >3467),no binding (tested: rel. affinity >825),no binding (tested: rel. affinity >11262)
KRVPTAPAATSKPGL (C-terminal amide) [CCNB1 25-39],no binding (tested: rel. affinity >1771),no binding (tested: rel. affinity >1036),no binding (tested: rel. affinity >1949),no binding (tested: rel. affinity >1949),no binding (tested: rel. affinity >329),no binding (tested: rel. affinity >362),no binding (tested: rel. affinity >961),no binding (tested: rel. affinity >3467),no binding (tested: rel. affinity >825),no binding (tested: rel. affinity >11262)

# Further lines, with some results ahead:
binding [2],binding [3],binding [4],binding [5],binding [6],binding [7],binding [8],binding [9],binding [10],Binder,binding [1]
no binding (tested: rel. affinity >1771),no binding (tested: rel. affinity >1036),no binding (tested: rel. affinity >1949),no binding (tested: rel. affinity >1949),no binding (tested: rel. affinity >329),no binding (tested: rel. affinity >362),no binding (tested: rel. affinity >961),–,–,TGKVIDKKLPKPLEK (C-terminal amide) [CCNB1 71-85],no binding (tested: rel. affinity >11262)
no binding (tested: rel. affinity >1771),no binding (tested: rel. affinity >1036),no binding (tested: rel. affinity >1949),no binding (tested: rel. affinity >1949),no binding (tested: rel. affinity >329),no binding (tested: rel. affinity >362),no binding (tested: rel. affinity >961),no binding (tested: rel. affinity >3467),no binding (tested: rel. affinity >825),EPVPEPEPEPEPEPV (C-terminal amide) [CCNB1 96-110],no binding (tested: rel. affinity >11262)
–,no binding (tested: rel. affinity >1036),no binding (tested: rel. affinity >1949),no binding (tested: rel. affinity >1949),no binding (tested: rel. affinity >329),no binding (tested: rel. affinity >362),no binding (tested: rel. affinity >961),no binding (tested: rel. affinity >3467),no binding (tested: rel. affinity >825),LAVNDVDAEDGADPN (C-terminal amide) [CCNB1 151-165],no binding (tested: rel. affinity >11262)
